Measurements from patent publication US8283322B2, “Formulations for nonsurgical exogenous crosslink therapy” (Orthopeutics, LP, priority 2008, dated 2012).
Some results were stated once for a whole list of compounds, not compound by compound.

Test system: bovine lumbar functional spinal units
Assay: Flexion/extension flexibility (instability) testing after discectomy and crosslinking injection
Conditions: 400 mM Methylglyoxal or 0.33% genipin in 1× PBS, 48 hours; normalized to intact

Structure (SMILES) | return of segment to the intact state, NZ (Neutral Zone) | return of segment to the intact state, most parameters
COC(=O)C1=CO[C@@H](O)[C@@H]2C(CO)=CC[C@H]12 [Genipin, genipin] | ≤ 18% | ≤ 6%
CC(=O)C=O [Methylglyoxal, methylglyoxal] | ≤ 18% | ≤ 6%
